PubChem BioAssay AID1159584 | Peter MacCallum Cancer Centre – 2016

- Screen: 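Knock-downs that harm CDH1-null cells more than parental MCF10A cells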 (primary screen)
- System: human MCF10A breast epithelial cells, parental and CDH1-null
- Knock-down reagent: siRNA against human genes
- Detection: 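ATP luminescence (CellTiter-Glo) viability per line relative to mean mock wells over all plates, and the ratio of CDH1-null to parental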
- Scale: CDH1-null / parental viability ratio: higher = CDH1-null cells survive relatively better than parental; CDH1-null viability vs mock: higher = more viable CDH1-null cells; parental viability vs mock: higher = more viable parental cells
Shown is an unselected part of about 18,000 reagents. No sequences are given here. The record does not give: the amount of reagent, the time to read-out.

CDH1-null / parental viability ratio	CDH1-null viability vs mock (fraction of mock)	parental viability vs mock (fraction of mock)	gene knocked down
1.64	0.74	0.45	TMCC1 (transmembrane and coiled-coil domain family 1)
1.1	0.8	0.73	GAD1 (glutamate decarboxylase 1)
0.89	0.66	0.74	ECI1 (enoyl-CoA delta isomerase 1)
1.26	0.72	0.57	MAD2L1BP (MAD2L1 binding protein)
1.1	0.9	0.82	RAB11A (RAB11A, member RAS oncogene family)
1.1	0.8	0.73	SMAD4 (SMAD family member 4)
1.67	0.92	0.55	TAAR9 (trace amine associated receptor 9)
1.45	0.74	0.51	TUBGCP2 (tubulin gamma complex component 2)
1.01	1.09	1.08	HK2 (hexokinase 2)
1.09	0.96	0.88	RAF1 (Raf-1 proto-oncogene, serine/threonine kinase)
1.09	0.72	0.66	PHYHIPL (phytanoyl-CoA 2-hydroxylase interacting protein like)
1.32	0.66	0.5	MAGEA8 (MAGE family member A8)
1.71	0.65	0.38	ZNF142 (zinc finger protein 142)
1	0.6	0.6	CRYGA (crystallin gamma A)
1.28	0.74	0.58	SCNN1D (sodium channel epithelial 1 subunit delta)
1.1	1.02	0.93	DOLPP1 (dolichyldiphosphatase 1)
1.07	0.45	0.42	RETREG2 (reticulophagy regulator family member 2)
0.93	0.71	0.76	TULP2 (TUB like protein 2)
0.9	0.62	0.69	BNIP1 (BCL2 interacting protein 1)
0.93	0.56	0.6	KNCN (kinocilin)
0.76	0.32	0.42	BPIFA1 (BPI fold containing family A member 1)
0.88	0.82	0.93	TRIM44 (TRIM family member 44)
0.9	0.66	0.73	TMX4 (thioredoxin related transmembrane protein 4)
1.04	1	0.96	KRTAP12-2 (keratin associated protein 12-2)
1.02	0.84	0.82	IFT46 (intraflagellar transport 46)
0.89	0.77	0.87	PICK1 (protein interacting with PRKCA 1)
0.84	0.76	0.9	SYTL3 (synaptotagmin like 3)
1.27	1.12	0.88	ZNF570 (zinc finger protein 570)

Quoted from above (4 entries):
CDH1-null / parental viability ratio	CDH1-null viability vs mock (fraction of mock)	parental viability vs mock (fraction of mock)	gene knocked down
1	0.6	0.6	CRYGA (crystallin gamma A)
1.28	0.74	0.58	SCNN1D (sodium channel epithelial 1 subunit delta)
1.1	1.02	0.93	DOLPP1 (dolichyldiphosphatase 1)
1.07	0.45	0.42	RETREG2 (reticulophagy regulator family member 2)
